From the supplement of paper PMC3741180, “A Novel High Throughput Biochemical Assay to Evaluate the HuR Protein-RNA Complex Formation” (PLoS ONE, 2013)
Values joined by “and” are separate entries in the source; they are usually repeats but may differ in a detail not shown here. Equal values may be shown once. This is one part of the list. Single values are uncertain here, since repeats match poorly.

Sequences of proteins named here, by UniProt entry; tags and fusion partners are left off.
UniProt Q15717, whole entry: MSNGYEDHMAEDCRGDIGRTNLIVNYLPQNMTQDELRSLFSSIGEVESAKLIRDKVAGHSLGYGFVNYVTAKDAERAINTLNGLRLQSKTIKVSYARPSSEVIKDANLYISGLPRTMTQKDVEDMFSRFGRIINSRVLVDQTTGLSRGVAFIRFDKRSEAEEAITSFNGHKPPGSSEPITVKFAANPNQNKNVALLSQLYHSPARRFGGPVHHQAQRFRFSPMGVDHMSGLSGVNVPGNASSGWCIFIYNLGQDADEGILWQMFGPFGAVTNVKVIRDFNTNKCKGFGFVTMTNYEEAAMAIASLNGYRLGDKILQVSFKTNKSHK

biological target: HuR (ELAVL1) - TNFalpha ARE RNA complex (UniProt Q15717); assay: AlphaScreen HuR-RNA complex signal Z-score relative to positive (Bi-TNF, DMSO) controls (Z-score (SD units of positive control)); higher = more complex signal; details: screen stage: primary screen; compound concentration: 25 nM

Row | Compound | AlphaScreen HuR-RNA complex signal Z-score
1 | COc1cc(/C=C/C(=O)O)ccc1O | 1.64
2 | CN(C)CCc1c[nH]c2ccc(C[C@H]3COC(=O)N3)cc12 | -0.866
3 | CN(C)CCC=C1c2ccccc2C=Cc2ccccc21 | 1.06
4 | O=c1[nH]c(=O)n([C@H]2C[C@H](O)[C@@H](CO)O2)cc1F | 0.763
5 | Nc1ccc(C(=O)Oc2ccccc2)c(O)c1 | 0.323
6 | CC1=CC(=O)CC(C)(C)C1(O)/C=C/C(C)=C\C(=O)O (mixture of isomers) [ABSCISIC ACID (cis,trans; +/-)] | 0.458
7 | NC(=O)c1ncn([C@@H]2O[C@H](CO)[C@@H](O)[C@H]2O)c1N | 1
8 | CCC(=O)O[C@H]1[C@H](O[C@@H]2[C@@H](C)[C@H](O[C@H]3C[C@@](C)(OC)[C@@H](O)[C@H](C)O3)[C@@H](C)C(=O)O[C@H](CC)[C@@](C)(O)[C@H](O)[C@@H](C)C(=O)[C@H](C)C[C@@]2(C)O)O[C@H](C)C[C@@H]1N(C)C | 1.54
9 | Nc1ncnc2c1ncn2[C@@H]1O[C@H](COP(=O)(O)O)[C@@H](O)[C@H]1O | -0.00287
10 | O=C(O)c1cc(O)c2c(c1)[C@H]([C@H]1c3cc(C(=O)O)cc(O)c3C(=O)c3c(O[C@@H]4O[C@H](CO)[C@@H](O)[C@H](O)[C@H]4O)cccc31)c1cccc(O[C@@H]3O[C@H](CO)[C@@H](O)[C@H](O)[C@H]3O)c1C2=O | 0.314
11 | N[C@@H](COCc1ccccc1)C(=O)O | 1.02
12 | CC(c1cc2ccccc2s1)N(O)C(N)=O (stereo unspecified) | 1.44
13 | C[C@@H]1C(=O)O[C@H]2C[C@@]34[C@H]5C[C@@H](C(C)(C)C)[C@]36[C@@H](OC(=O)[C@@H]6O)O[C@@]4(C(=O)O5)[C@]21O | 1.78
14 | COc1cc(O)c(C(C)=O)c(OC)c1 | 2.36
15 | CN(C)CCCOc1nn(Cc2ccccc2)c2ccccc12 | 0.214
16 | CCCCCCCCCCCCCc1ccco1 | 2.04
17 | OC[C@@H](O)[C@@H](O)[C@H](O)[C@@H](O)CO | -4.13
18 | CCCCC(=O)O[C@]1(C(=O)CO)[C@@H](C)C[C@H]2[C@@H]3CCC4=CC(=O)C=C[C@]4(C)[C@@]3(F)[C@@H](O)C[C@@]21C | 0.148
19 | CC(=O)OCC(=O)[C@@]1(O)CC[C@H]2[C@@H]3CCC4=CC(=O)CC[C@]4(C)[C@H]3C(=O)C[C@@]21C | -3.12
20 | Oc1ccc(O)cc1 | -8.16
21 | CC1CCC(NC(=O)N(CCCl)N=O)CC1 (stereo unspecified) | 0.306
22 | CC1=C2C(O)C(=O)OC3CC4C(C)(C)C(=O)C=C[C@]4(C)C(CC1)[C@]23C (stereo partly specified) | -0.436

Row | Compound | AlphaScreen HuR-RNA complex signal Z-score
23 | CC(C)(O)CC[C@@H](O)[C@](C)(O)[C@H]1CC[C@@]2(O)C3=CC(=O)[C@@H]4C[C@@H](O)[C@@H](O)C[C@]4(C)[C@H]3CC[C@]12C | -0.241
24 | CCCc1cc(OC)c2c(c1)OCO2 | 0.712
25 | Nc1ccc(S(=O)(=O)Nc2ccc(Cl)nn2)cc1 | 0.729
26 | COC1=C(O)C(=O)c2c(cc3oc(C(C)=O)c(O)c3c2O)C1=O | 0.5
27 | Cc1ccc(/C(=C\CN2CCCC2)c2ccccn2)cc1 | -3.02
28 | CC(C)(O/N=C(\C(=O)N[C@@H]1C(=O)N2C(C(=O)[O-])=C(C[n+]3ccccc3)CS[C@H]12)c1csc(N)n1)C(=O)O | 2.07
29 | COc1ccc(C2CC(=O)c3ccc(OC)cc3O2)cc1 (stereo unspecified) | 0.732
30 | OC[C@H]1O[C@@H](OCCc2ccc(O)cc2)[C@H](O)[C@@H](O)[C@@H]1O | -0.391
31 | CNCCC=C1c2ccccc2CCc2ccccc21 | 0.49
32 | CC(=O)O[C@H]1CC[C@]2(C)[C@H]3CC[C@@]4(C)[C@H](c5ccoc5)OC(=O)[C@H]5O[C@]54[C@]3(C)[C@H](OC(C)=O)C[C@H]2C1(C)C [3beta-ACETOXYDEOXODIHYDROGEDUNIN] | 2.19
33 | Cc1ccc2c(c1)CC[C@H]1CC(=O)CC[C@]21C | 1.75
34 | CC(=O)Nc1ccc(S(=O)(=O)Nc2ccc([N+](=O)[O-])cc2)cc1 | 0.765
35 | Cc1ccc(C(=O)Nc2ccc(S(=O)(=O)O)c3cc(S(=O)(=O)O)cc(S(=O)(=O)O)c23)cc1NC(=O)c1cccc(NC(=O)Nc2cccc(C(=O)Nc3cc(C(=O)Nc4ccc(S(=O)(=O)O)c5cc(S(=O)(=O)O)cc(S(=O)(=O)O)c45)ccc3C)c2)c1 | 2.09
36 | CCc1cc(C(N)=S)ccn1 | -1.55
37 | CC(=O)Nc1c(I)c(NC(C)=O)c(I)c(C(=O)O)c1I | 3.06
38 | CN1CCN(C(c2ccccc2)c2ccc(Cl)cc2)CC1 (stereo unspecified) | -3.49
39 | Cc1ccc(C(C)C)cc2c(C)ccc1-2 | 1.26
40 | O=C(N/N=C/c1ccc([N+](=O)[O-])o1)c1ccc(O)cc1 | -0.199
41 | C[C@@H]1O[C@@H]1P(=O)(O)O | -1.18
42 | CCn1cc(C(=O)O)c(=O)c2cc(F)c(N3CCN(C)CC3)cc21 | -8.41
43 | CCCCC(=O)Oc1ccccc1C(=O)O | 1.23
44 | CCn1cc(C(=O)O)c(=O)c2cc(F)c(N3CCNC(C)C3)c(F)c21 (stereo unspecified) | 0.689

Row | Compound | AlphaScreen HuR-RNA complex signal Z-score
45 | CS(=O)(=O)Nc1ccc([N+](=O)[O-])cc1Oc1ccccc1 | 1.6
46 | O=C(O)C1=CCNCC1 | 1.92
47 | CNC(=C[N+](=O)[O-])NCCSCc1csc(CN(C)C)n1 | 3.94
48 | CC1(C)[C@@H](O[C@H]2O[C@H](C(=O)O)[C@@H](O)[C@H](O)[C@H]2O[C@@H]2O[C@H](C(=O)O)[C@@H](O)[C@H](O)[C@H]2O)CC[C@]2(C)[C@H]3C(=O)C=C4[C@@H]5C[C@@](C)(C(=O)O)CC[C@]5(C)CC[C@@]4(C)[C@]3(C)CC[C@@H]12 | 2.75
49 | CCOC(=O)CCC(=O)O[C@H]1[C@H](O[C@@H]2[C@@H](C)[C@H](O[C@H]3C[C@@](C)(OC)[C@@H](O)[C@H](C)O3)[C@@H](C)C(=O)O[C@H](CC)[C@@](C)(O)[C@H](O)[C@@H](C)C(=O)[C@H](C)C[C@@]2(C)O)O[C@H](C)C[C@@H]1N(C)C | -3.24
50 | C[C@]12C=CC(=O)C=C1CC[C@@H]1[C@@H]2C(=O)C[C@@]2(C)[C@H]1CC[C@]2(O)C(=O)CO | 3.23
51 | CC(=O)O[C@@H]1C[C@@]2(C)C(CC[C@@H]2C(C)=O)C2CCC3=CC(=O)CC[C@]3(C)C21 (stereo partly specified) | 0.35
52 | CO[C@H]1C[C@@H]2CC[C@@H](C)[C@@](O)(O2)C(=O)C(=O)N2CCCC[C@H]2C(=O)O[C@H]([C@H](C)C[C@@H]2CC[C@@H](O)[C@H](OC)C2)CC(=O)[C@H](C)/C=C(\C)[C@@H](O)[C@@H](OC)C(=O)[C@H](C)C[C@H](C)/C=C/C=C/C=C/1C | 0.504
53 | COC(=O)C[C@H]1C(C)(C)[C@@H](OC(C)=O)[C@@H]2CC3=C4CC(=O)O[C@@H](c5ccoc5)[C@]4(C)CC[C@@H]3[C@@]1(C)C2=O | 0.984
54 | C#C[C@]1(O)CC[C@H]2[C@@H]3CCc4cc(OC)ccc4[C@H]3CC[C@@]21C | 9.02
55 | CC(C)NCC(O)c1ccc(NS(C)(=O)=O)cc1 (stereo unspecified) | 2.5
56 | CC(=O)N1CCN(c2ccc(OCC3COC(Cn4ccnc4)(c4ccc(Cl)cc4Cl)O3)cc2)CC1 (stereo unspecified) | -1.34
57 | CCN(CC)CCCC(C)Nc1c2ccc(Cl)cc2nc2ccc(OC)cc12 (stereo unspecified) | -3.1
58 | Cc1nc(C)c(Cl)c(O)c1Cl | 4.48
59 | CC1(C)C2CC(=O)O[C@@]3(C)C4=CC(=O)O[C@@H](c5ccoc5)[C@]4(C)CCC3[C@@]2(C)C=C[C@H]1O (stereo partly specified) | 1.66
60 | O=C(O)P(=O)(O)O | 1.57
61 | COc1cc2c(cc1OC)-c1cc3ccc(OC)c(OC)c3c[n+]1CC2 | 1.42 and 1.74
62 | COC(=O)[C@H]1[C@H]2C[C@@H]3c4[nH]c5cc(OC)ccc5c4CCN3C[C@H]2C[C@@H](OC(=O)c2cc(OC)c(OC)c(OC)c2)[C@@H]1OC | -2.92
63 | CNC(=C[N+](=O)[O-])NCCSCc1ccc(CN(C)C)o1 | 1.24
64 | O=c1c(-c2ccc(O)cc2)coc2cc(O)cc(O)c12 | 2.31
65 | O=C1C=C2CC3(O)COc4cc(O)ccc4C3=C2C=C1O (stereo unspecified) | 0.986
66 | N[C@H](Cc1ccccc1)C(=O)O | 3.05

Row | Compound | AlphaScreen HuR-RNA complex signal Z-score
67 | O=C1C=CC(=C(c2ccc(O)cc2)c2ccc(O)cc2)C=C1 | 2.16
68 | CCCc1nc(C)c2c(O)nc(-c3cc(S(=O)(=O)N4CCN(CC)CC4)ccc3OCC)nn12 | 0.457
69 | CCN(CC)CCNC(=O)c1ccc(NC(C)=O)cc1 | 3.6
70 | CNC[C@H](O)c1cccc(O)c1 | 2.96
71 | CC(C)(CO)[C@@H](O)C(=O)NCCCO | 2.18
72 | O=C(O[C@@H]1Cc2c(O)cc(O)cc2O[C@@H]1c1cc(O)c(O)c(O)c1)c1cc(O)c(O)c(O)c1 | 1.57
73 | CC(C(=O)O)[C@H]1CCC2C3CC=C4C[C@@H](O)CC[C@]4(C)C3CC[C@@]21C (stereo partly drawn) [3beta-HYDROXY-23,24-BISNORCHOL-5-ENIC ACID] | 1.86
74 | NS(=O)(=O)c1cc2c(cc1Cl)N=C(CSCc1ccccc1)NS2(=O)=O | 0.987
75 | CC(=O)OC/C=C(C)/C=C/C=C(C)/C=C/C1=C(C)CCCC1(C)C | 3.23
76 | O=C1C(CC[S+]([O-])c2ccccc2)C(=O)N(c2ccccc2)N1c1ccccc1 (stereo unspecified) | 11.2
77 | CC(C)c1ccc2c(c1)CCC1C(C)(C(N)=O)CCCC21C (stereo unspecified) | 1.83
78 | COc1cc(OC)c2c(=O)c(OC)c(-c3ccc(OC)c(OC)c3)oc2c1 | 0.268
79 | CC[C@@]1(O)C(=O)OCc2c1cc1n(c2=O)Cc2cc3cc(O)ccc3nc2-1 | 1.69
80 | O=C(O)Cc1ccccc1Nc1c(Cl)cccc1Cl | -2.58
81 | O=c1cc(-c2cc(O)c(O)c(O)c2)oc2cc(O)cc(O)c12 | 2.88
82 | C[C@@H]1O[C@@H](Oc2c(-c3ccc(O)c(O)c3)oc3cc(O)cc(O)c3c2=O)[C@H](O)[C@H](O)[C@H]1O | 0.676
83 | N=c1ccn2c(n1)O[C@H]1[C@H](O)[C@@H](CO)O[C@H]12 | -0.461
84 | O=c1[nH]cc(F)c(=O)[nH]1 | -4.7
85 | O=C(O)c1cc(=O)c2cccc(O)c2[nH]1 | 1.23
86 | C[C@]12C=CC(=O)C=C1CC[C@@H]1[C@@H]2[C@@H](O)C[C@@]2(C)[C@H]1CC[C@]2(O)C(=O)CO | 7.26

Reformatted as a markdown table: entries from further up

| Row | Compound | AlphaScreen HuR-RNA complex signal Z-score |
| --- | --- | --- |
| 64 | O=c1c(-c2ccc(O)cc2)coc2cc(O)cc(O)c12 | 2.31 |
| 65 | O=C1C=C2CC3(O)COc4cc(O)ccc4C3=C2C=C1O (stereo unspecified) | 0.986 |
| 66 | N[C@H](Cc1ccccc1)C(=O)O | 3.05 |
| 67 | O=C1C=CC(=C(c2ccc(O)cc2)c2ccc(O)cc2)C=C1 | 2.16 |
| 68 | CCCc1nc(C)c2c(O)nc(-c3cc(S(=O)(=O)N4CCN(CC)CC4)ccc3OCC)nn12 | 0.457 |
| 69 | CCN(CC)CCNC(=O)c1ccc(NC(C)=O)cc1 | 3.6 |
| 70 | CNC[C@H](O)c1cccc(O)c1 | 2.96 |
| 71 | CC(C)(CO)[C@@H](O)C(=O)NCCCO | 2.18 |
| 72 | O=C(O[C@@H]1Cc2c(O)cc(O)cc2O[C@@H]1c1cc(O)c(O)c(O)c1)c1cc(O)c(O)c(O)c1 | 1.57 |
| 73 | CC(C(=O)O)[C@H]1CCC2C3CC=C4C[C@@H](O)CC[C@]4(C)C3CC[C@@]21C (stereo partly drawn) [3beta-HYDROXY-23,24-BISNORCHOL-5-ENIC ACID] | 1.86 |
| 74 | NS(=O)(=O)c1cc2c(cc1Cl)N=C(CSCc1ccccc1)NS2(=O)=O | 0.987 |
| 75 | CC(=O)OC/C=C(C)/C=C/C=C(C)/C=C/C1=C(C)CCCC1(C)C | 3.23 |
| 76 | O=C1C(CC[S+]([O-])c2ccccc2)C(=O)N(c2ccccc2)N1c1ccccc1 (stereo unspecified) | 11.2 |
| 77 | CC(C)c1ccc2c(c1)CCC1C(C)(C(N)=O)CCCC21C (stereo unspecified) | 1.83 |
| 78 | COc1cc(OC)c2c(=O)c(OC)c(-c3ccc(OC)c(OC)c3)oc2c1 | 0.268 |
| 79 | CC[C@@]1(O)C(=O)OCc2c1cc1n(c2=O)Cc2cc3cc(O)ccc3nc2-1 | 1.69 |
| 80 | O=C(O)Cc1ccccc1Nc1c(Cl)cccc1Cl | -2.58 |
| 81 | O=c1cc(-c2cc(O)c(O)c(O)c2)oc2cc(O)cc(O)c12 | 2.88 |
| 82 | C[C@@H]1O[C@@H](Oc2c(-c3ccc(O)c(O)c3)oc3cc(O)cc(O)c3c2=O)[C@H](O)[C@H](O)[C@H]1O | 0.676 |
| 83 | N=c1ccn2c(n1)O[C@H]1[C@H](O)[C@@H](CO)O[C@H]12 | -0.461 |
| 84 | O=c1[nH]cc(F)c(=O)[nH]1 | -4.7 |
| 85 | O=C(O)c1cc(=O)c2cccc(O)c2[nH]1 | 1.23 |
